# Measurements taken from the supplement of paper PMC9135407.
# Where “and” joins values, the source holds several entries; their conditions need not be identical. Identical values can stand only once. Counter-ions that a name gives are not always drawn. ± gives the standard deviation of the averaged measurements. The list shows a part of the results. Part of the spread comes from offsets between plates or batches.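 Culture-activated primary human stellate myofibroblasts, where regained lipid droplets signal inactivation. Value: share of Hoechst-counted cells above a per-plate Bodipy cutoff, in duplicate wells, with DMSO negative and nortriptyline positive controls on each plate. Hits: a control-normalized score above the plate's top-tenth-percentile nortriptyline wells, or one of a plate's three best wells. Final well concentrations are not given.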
# Tested on: primary human hepatic stellate cells (donor 1)
# Assay: percent Bodipy-positive cells; higher = more lipid droplet accumulation
# Conditions: 48 h
# [1] = library stock concentration: 400 uM
# [2] = library stock concentration: 2 mM
# [3] = library stock concentration: 10 mM
# [4] = library stock concentration: 3.33 mM
compound,measurement,setting,value
O=c1c2ccccc2[nH]c(=S)n1CCN1CCC(=C(c2ccc(F)cc2)c2ccc(F)cc2)CC1,percent Bodipy-positive cells,library stock concentration: 80 uM,14.3 ± 7.6%
same,percent Bodipy-positive cells,[1],15.8 ± 6.4%
same,percent Bodipy-positive cells,[2],9.54 ± 1.7%
same,percent Bodipy-positive cells,[3],8.1 ± 0.24%
O=c1c2ccccc2[nH]c(=S)n1CCN1CCC(=C(c2ccc(F)cc2)c2ccc(F)cc2)CC1 [Diacylglycerol Kinase Inhibitor II],percent Bodipy-positive cells,[4],5.01 ± 1.7%
same,percent Bodipy-positive cells,[3],25.9 ± 7.5%
CC(=O)/N=c1/sc(S(N)(=O)=O)nn1C [Methazolamide],percent Bodipy-positive cells,,7.09 ± 3.1%
same,percent Bodipy-positive cells,[4],8.66 ± 1.1%
same,percent Bodipy-positive cells,[3],35.3% and 32.6% and 28.5%
CC1=CC(=O)c2ccccc2C1=O [Menadione],percent Bodipy-positive cells,[4],8.04 ± 4.1%
same,percent Bodipy-positive cells,library stock concentration: 11.6 mM,100%
CCCCC[C@](C)(O)/C=C/[C@@H]1[C@@H](C/C=C\CCCC(=O)O)[C@@H](O)C[C@H]1O [15(S)-15-methyl Prostaglandin F2.alpha.],percent Bodipy-positive cells,library stock concentration: 1 mM,17.7 ± 0.61%
Cc1ccc(C(=O)N(CCCN)[C@@H](c2nc3cc(Cl)ccc3c(=O)n2Cc2ccccc2)C(C)C)cc1,percent Bodipy-positive cells,[4],49.5 ± 20%
same,percent Bodipy-positive cells,[3],100%
N=C(N)N1CCc2ccccc2C1 [Debrisoquin sulfate],percent Bodipy-positive cells,,60.6 ± 45%
same,percent Bodipy-positive cells,library stock concentration: 7.3 mM,2.46 ± 3.5%
same,percent Bodipy-positive cells,[3],30.6 ± 1.1%
COCCCOc1cc(C[C@@H](C[C@H](N)[C@@H](O)C[C@H](C(=O)NCC(C)(C)C(N)=O)C(C)C)C(C)C)ccc1OC,percent Bodipy-positive cells,[3],43.2 ± 18%
COCCCOc1cc(C[C@@H](C[C@H](N)[C@@H](O)C[C@H](C(=O)NCC(C)(C)C(N)=O)C(C)C)C(C)C)ccc1OC [Aliskiren Hemifumarate],percent Bodipy-positive cells,[4],6.93 ± 0.21%
same,percent Bodipy-positive cells,[3],10.9 ± 0.75%
CNCCCCOc1ccccc1Cc1ccccc1 [Bifemelane],percent Bodipy-positive cells,[3],79.3 ± 11%
NC(=O)Nc1cc(-c2ccccc2)sc1C(N)=O [IKK-2 Inhibitor XI],percent Bodipy-positive cells,[4],11 ± 2.6%
OCCC#Cc1nc(-c2ccc(F)cc2)c(-c2ccncc2)n1CCCc1ccccc1,percent Bodipy-positive cells,[1],27.6 ± 8.5%
same,percent Bodipy-positive cells,[2],25.1 ± 6.7%
same,percent Bodipy-positive cells,[3],66.06 ± 0.37%
C#C[C@]1(OC(C)=O)CC[C@H]2[C@@H]3CCC4=CC(=O)CC[C@@H]4[C@H]3CC[C@@]21C,percent Bodipy-positive cells,[3],62.4 ± 8.6%
C#C[C@]1(OC(C)=O)CC[C@H]2[C@@H]3CCC4=CC(=O)CC[C@@H]4[C@H]3CC[C@@]21C [Norethindrone acetate],percent Bodipy-positive cells,library stock concentration: 5.9 mM,7.33 ± 4.5%
same,percent Bodipy-positive cells,[3],10.7 ± 0.3%
CCCCOC(=O)c1ccc(O)cc1 [Butylparaben],percent Bodipy-positive cells,,19.5 ± 2.7%
CCCc1nc2c(C)cc(-c3nc4ccccc4n3C)cc2n1Cc1ccc(-c2ccccc2C(=O)O)cc1,percent Bodipy-positive cells,[3],9.52 ± 2.9%
CCCc1nc2c(C)cc(-c3nc4ccccc4n3C)cc2n1Cc1ccc(-c2ccccc2C(=O)O)cc1 [Telmisartan],percent Bodipy-positive cells,[4],10.7 ± 8.8%
same,percent Bodipy-positive cells,[3],11.6% and 24.5%
"O=C(O)Cc1ccc(O)c(O)c1 [3,4-Dihydroxyphenylacetic acid]",percent Bodipy-positive cells,[3],46.3 ± 20%
CN(C)c1cc(NC(=O)CNC(C)(C)C)c(O)c2c1CC1CC3C(N(C)C)C(=O)C(C(N)=O)=C(O)C3(O)C(=O)C1=C2O (stereo not given) [Tigecycline],percent Bodipy-positive cells,[4],6.55 ± 2.4%
same,percent Bodipy-positive cells,[3],17.4 ± 9.2%
